Source: PubChem BioAssay AID624297 (National Center for Advancing Translational Sciences (NCATS), 2012)
“And” between values parts separate entries of the source, which are not always exact repeats. Equal values may be shown once. In all, about 340,000 compounds went through this assay and about 6,200 (1.8%) were called active. The shares of active, inactive and inconclusive entries below differ from those in the screen. The call rests on the fitted dose curve; in most records, active means well fitted activation curve with a large enough effect; inconclusive means small, poorly fitted or top-dose-only effect; inactive means no such curve, though single readings can be large or run the other way. Where the call is inconclusive, the potency comes from a doubtful curve fit.

Experiment: A quantitative high throughput screen for small molecules that induce DNA re-replication in SW480 colon adenocarcinoma cells. Further: nearly all actives have a fitted effect of over 55% in size.
Conditions: Hoechst DNA content imaging, 48 h; series mostly up to 46.1 µM
In short: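 SW480 cells exposed to compounds for 48 hr at 37 C, 5% CO2, then Hoechst-stained 40 min. Nuclear DNA content imaged by fluorescence scanning (405 nm excitation, 500-530 nm emission); re-replication scored as increased high-intensity nuclei.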
Potency means the concentration at half of the fitted maximal effect.

Row | Compound | Potency
1 | CCOC(=O)C1CCN(C(=O)COc2ccc(Br)cc2Br)CC1 | inactive
2 | Cc1cccc(C(=O)Nc2ccc(N3CCN(C(=O)c4ccco4)CC3)cc2)c1 | inactive
3 | O=S(=O)(c1ccccc1F)N1CCN(CCOc2ccccc2)CC1 | inactive
4 | CN1CCc2c(sc3c2C(=O)NC(c2ccco2)N3)C1 (stereo not drawn) | inactive
5 | CCn1c(SCC(=O)Nc2cc(C(C)(C)C)nn2-c2ccccc2)nnc1-c1cccs1 | inconclusive: 5.8 µM [activator, full curve]
6 | CN1C(=O)N(c2ccc(Cl)cc2)C(C)(O)CC1(C)C (stereo not drawn) | inconclusive: 20.6 µM [activator, partial curve, poor fit]
7 | COc1ccc(-c2cn(Cc3ccc(C(=O)c4ccccc4)cc3)nn2)cc1 | inconclusive: 0.731 µM [activator, partial curve, poor fit]
8 | COc1cccc(/C=N/n2c(SC)nnc2-c2ccccc2)c1O | inconclusive: 18.4 µM [activator, single point]
9 | CCCOC(=O)c1ccc(Oc2c(-c3ccc(OCC)cc3O)n[nH]c2C)cc1 | inactive
10 | Cc1ccc(/C=C/C(=O)c2c(C)cc(C)[nH]c2=O)cc1 | inconclusive: 35.5 µM [activator, single point]
11 | CCCCN(c1ccccc1)c1ncnc(N)c1[N+](=O)[O-] | inactive
12 | O=C(Nc1ccccc1F)C(=Cc1sc(N2CCOCC2)nc1-c1ccccc1)C(=O)Nc1ccccc1F | inconclusive: 3.66 µM [activator, full curve, poor fit]
13 | Cc1ccc2occ(/C=N/NC(=O)c3ccncc3)c(=O)c2c1 | inconclusive: 20.6 µM [activator, partial curve, poor fit]
14 | CCOc1ccccc1C(=O)N/N=C/c1coc2ccc(C)cc2c1=O | inconclusive: 18.4 µM [activator, single point]
15 | Cc1ccc(C2C(C(=O)c3cccs3)=C(O)C(=O)N2c2cccc(C)n2)cc1 (stereo not drawn) | inactive
16 | O=C(Nc1cccc(F)c1)C1CCCN(S(=O)(=O)c2ccc(-n3cnnn3)cc2)C1 (stereo not drawn) | inconclusive: 29.1 µM [activator, partial curve, poor fit]
17 | O=CNc1ccc2c3c(cccc13)-c1ccccc1-2 | active: 2.31 µM
18 | NS(=O)(=O)c1ccc(CCNCc2cc(Br)ccc2OCc2ccccc2)cc1 | inconclusive: 10.3 µM [activator, partial curve, poor fit]
19 | CCCN(CC(=O)Nc1ccccc1OC)C(=O)c1cc(-c2cccs2)nn1-c1ccccc1 | inconclusive: 18.4 µM [activator, partial curve, poor fit]
20 | Cc1cccc(C)c1OC1(c2ccccc2)OC(=O)c2ccccc21 (stereo not drawn) | inconclusive: 18.4 µM [activator, single point]
21 | CCCC(NCC(O)COc1ccc(-c2ccccc2)cc1)c1ccccc1 (stereo not drawn) | active: 5.17 µM
22 | Cn1nnnc1Sc1ccc([N+](=O)[O-])cc1Cl | inconclusive: 20.6 µM [activator, partial curve, poor fit]
23 | Cc1occc1-c1nnc(SCC(=O)Nc2ccccc2)n1C(C)c1ccccc1 (stereo not drawn) | inconclusive: 0.0398 µM [activator, full curve, poor fit]

Row | Compound | Potency
24 | CC1=C(/C=C/C(C)=C/C=C/C(C)=C/C(=O)Nc2ccc(O)cc2)C(C)(C)CCC1 | inconclusive: 33.5 µM [activator, partial curve, poor fit] and inconclusive: 29.1 µM [activator, single point]
25 | Cc1nccc(-c2ccc(-n3c(C)ccc3C)cc2)n1 | inconclusive: 0.206 µM [activator, full curve, poor fit]
26 | CC(C)C(NC(=O)c1ccco1)C(=O)OCC(=O)N1CC(=O)Nc2ccccc21 (stereo not drawn) | inconclusive: 7.31 µM [activator, partial curve, poor fit]
27 | O=C(c1cccc(S(=O)(=O)NCc2ccccc2)c1)N1CCN(c2ccccc2Cl)CC1 | active: 16.4 µM
28 | COc1cc(NS(=O)(=O)c2ccc(Nc3nc(-c4ccccn4)cs3)cc2)nc(OC)n1 | inconclusive: 6.51 µM [activator, partial curve, poor fit]
29 | Cc1c(/C(O)=C2\C(=O)C(=O)N(CCN(C)C)C2c2ccco2)cnn1-c1ccccc1 (stereo not drawn) | inactive
30 | O=C(/C=C/c1ccccc1Cl)Nc1cccc(O)c1 | inactive
31 | Fc1ccccc1COc1ccc(/C=N/NC(=S)NCc2ccccc2)cc1 | inconclusive: 8.2 µM [activator, partial curve, poor fit]
32 | Cc1nnsc1C(=O)Nc1ccc(S(=O)(=O)N2CCCC(C)C2)cc1 (stereo not drawn) | inconclusive: 13 µM [activator, partial curve, poor fit]
33 | Cc1cc(O)c(Oc2cc(C)cc(O)c2O)c(O)c1 | active: 18.4 µM
34 | C[C@@]12C(=O)Nc3ccc(Br)cc3C(=O)N1[C@H]1c3ccccc3OC[C@@H]1[C@@H]2c1ccccc1 | inactive
35 | CCOC(=O)Cn1c(S(=O)(=O)Cc2cccc(F)c2)nc(-c2ccccc2)c1-c1ccccc1 | inconclusive: 6.51 µM [activator, partial curve, poor fit]
36 | Cc1nc([N+](=O)[O-])c(Br)n1CC(=O)c1ccccc1 | inconclusive: 29.1 µM [activator, single point]
37 | O=C(Nc1ccc(-c2csc(Nc3cccc(C(F)(F)F)c3)n2)cc1)c1cccc(C(F)(F)F)c1 | inconclusive: 18.4 µM [activator, single point]
38 | C=C1CCC[C@]2(C)C[C@H]3OC(=O)C(CNCC(C)C)[C@H]3CC12 (stereo partly drawn) | inconclusive: 20.6 µM [activator, single point]
39 | O=C(NCc1cccnc1)C1CCN(c2ccc(S(=O)(=O)N3CCOCC3)cc2Cl)CC1 | inconclusive: 23.1 µM [activator, single point]
40 | Cc1ccccc1C(=O)N/N=C/c1ccccn1 | inconclusive: 16.4 µM [activator, single point]
41 | COc1cccc(CSc2nc(N)cc(N)n2)c1 | inconclusive: 20.6 µM [activator, single point]
42 | NCCc1ccn[nH]1 | inconclusive: 1.12 µM [activator, full curve, poor fit]
43 | COC(=O)c1ccccc1NC(=O)CN1C(=O)c2ccccc2C1=O | inactive
44 | COc1cc(C2C=C(C34CC5CC(CC(C5)C3)C4)NC(=S)N2)cc(OC)c1OC (stereo not drawn) | inconclusive: 1.3 µM [activator, full curve, poor fit]
45 | CCc1ccc(-c2nnn(CC(=O)N(C3CCCC3)C3CCS(=O)(=O)C3)n2)cc1 (stereo not drawn) | inconclusive: 5.8 µM [activator, full curve, poor fit]
46 | C#CCOCCOCCOCCNc1nc(N2CCN(C(=O)CCCCCCCCCCNC(=O)[C@H]([C@@H](C)CC)n3cc(CCCCN=C(N)N)nn3)CC2)nc(N2CCN(C(=O)CCCCCCCCCCNC(=O)[C@H](CO)n3cc(CCCCCN)nn3)CC2)n1 | inactive

Row | Compound | Potency
47 | Cc1cc(/C=N/NC(N)=S)c(C)n1-c1ccc(Cl)cc1 | inconclusive: 20.6 µM [activator, single point]
48 | NC[C@H](Cc1ccccc1)NCCc1cc(C(F)(F)F)cc(C(F)(F)F)c1 | inconclusive: 2.59 µM [activator, partial curve]
49 | CCCCOC(=O)CSC1=C(C#N)C(c2ccccc2OCC)C(C#N)C(=O)N1 (stereo not drawn) | active: 10.3 µM
50 | COc1ccccc1Cn1cnc2cccnc21 | inactive
51 | CC(=O)c1cccc(-n2nnnc2SCC(=O)N2CCCC2)c1 | inactive
52 | CCN(Cc1ccccc1)S(=O)(=O)c1c[nH]c(C(=O)OC)c1 | inactive
53 | C/C(=N\NC(=S)NC1CCCCC1)c1cccc(Br)c1 | inactive
54 | Cc1nnc(SCC(=O)Nc2cc(S(=O)(=O)N3CCOCC3)ccc2C)s1 | inconclusive: 0.517 µM [activator, partial curve, poor fit]
55 | CCOC(=O)N1CCN(CCC(=O)c2ccc(Br)cc2)CC1 | inconclusive: 32.6 µM [activator, partial curve, poor fit]
56 | COc1ccccc1NC(=O)COc1ccc(Br)cc1CNC1CCCC1 | inactive
57 | CC(C)COc1cccc(C(=O)Nc2ccc(CN3CCOCC3)cc2)c1 | inconclusive: 29.1 µM [activator, single point]
58 | CC(C)c1ccc(/C=C/C2=NNC(=O)CC2)cc1 | inconclusive: 29.1 µM [activator, single point]
59 | COCc1cc(C)n(CC(=O)NCc2ccccc2)c(=O)c1C#N | active: 18.4 µM
60 | Cc1cc(C(=O)NC(C)C)on1 | inactive
61 | Cc1cccc(-c2ncc(CN3CCC(CO)(CCCc4ccccc4)CC3)cn2)c1 | inconclusive: 20.6 µM [activator, single point]
62 | Cc1ccc(-c2csc(C(C#N)=C(O)CN3CCN(C(=O)c4ccco4)CC3)n2)cc1 | inactive
63 | N#Cc1c(C(F)(F)F)cc(-c2ccco2)nc1SCc1ccccn1 | inconclusive: 23.1 µM [activator, single point]
64 | COc1cccc(CNC(=O)CCC2CCCN(C(=O)c3ccc(F)c(Cl)c3)C2)c1 (stereo not drawn) | inconclusive: 20.6 µM [activator, partial curve, poor fit]
65 | CCN(CC)c1ccc(/C=N/NC(=O)c2cnccn2)c(O)c1 | inconclusive: 0.651 µM [activator, full curve, poor fit]
66 | CC(=O)N1CCn2c3c(c4cc(C)ccc42)CCCC31 (stereo not drawn) | inactive
67 | C=CCN(CC=C)C(=O)Nc1cc(Cl)ccc1OC | inactive
68 | CCN(Cc1ccccc1)S(=O)(=O)c1ccc(C(=O)N(CCCN(C)C)c2nc3cc4c(cc3s2)OCO4)cc1 | inconclusive: 25.9 µM [activator, single point]
